Test [1] addresses T1, AtCHS (GAL4 two-hybrid fusion) (Arabidopsis thaliana) (UniProt P13114).
T1 sequence: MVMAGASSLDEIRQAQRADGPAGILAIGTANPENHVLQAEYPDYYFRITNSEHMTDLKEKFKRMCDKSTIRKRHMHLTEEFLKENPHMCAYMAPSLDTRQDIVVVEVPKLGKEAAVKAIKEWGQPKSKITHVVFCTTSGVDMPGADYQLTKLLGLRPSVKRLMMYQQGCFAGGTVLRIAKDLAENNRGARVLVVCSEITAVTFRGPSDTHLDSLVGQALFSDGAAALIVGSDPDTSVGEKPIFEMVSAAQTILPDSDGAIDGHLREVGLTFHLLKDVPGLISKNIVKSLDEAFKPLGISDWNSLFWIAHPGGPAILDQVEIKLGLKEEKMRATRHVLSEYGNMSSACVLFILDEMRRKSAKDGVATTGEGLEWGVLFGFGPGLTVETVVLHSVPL
In words: two-hybrid; GAL4-based (Matchmaker Gold), S. cerevisiae Y2H Gold; fusions with the GAL4 activation and DNA-binding domains; growth on -WL, -WLH and -WLHAde.

The target of test [2] is T2, AtCHS (BiFC fusion) (Arabidopsis thaliana) (UniProt P13114).
T2 sequence: T1 sequence
In words: split reporter; BiFC in Nicotiana benthamiana leaf cells; NmVen210 and CVen210 fusions from pDOE-05, agroinfiltration, 25 °C for 2 days, confocal microscopy.

These are yes or no findings as the source states them, for the method shown. For some assays here: Binding seen in cells or lysates may run through a third protein. Some entries that bind do so weakly or less than the wild type. Where a sequence is shown, tags or fusion partners need not be part of it.

B1: AtCHIL (GAL4 two-hybrid fusion) (protein, UniProt Q8VZW3 1-209)
chain: MGTEMVMVHEVPFPPQIITSKPLSLLGQGITDIEIHFLQVKFTAIGVYLDPSDVKTHLDNWKGKTGKELAGDDDFFDALASAEMEKVIRVVVIKEIKGAQYGVQLENTVRDRLAEEDKYEEEEETELEKVVGFFQSKYFKANSVITYHFSAKDGICEIGFETEGKEEEKLKVENANVVGMMQRWYLSGSRGVSPSTIVSIADSISAVLT
As for B1, the binding result in test [1] is on record as “binds”.

B2: AtCHIL (BiFC fusion) (protein, UniProt Q8VZW3 5-209)
chain: MVMVHEVPFPPQIITSKPLSLLGQGITDIEIHFLQVKFTAIGVYLDPSDVKTHLDNWKGKTGKELAGDDDFFDALASAEMEKVIRVVVIKEIKGAQYGVQLENTVRDRLAEEDKYEEEEETELEKVVGFFQSKYFKANSVITYHFSAKDGICEIGFETEGKEEEKLKVENANVVGMMQRWYLSGSRGVSPSTIVSIADSISAVLT
B2: the binding entry in test [2] was “binds”.

For the origin of these results see paper PMC7018950.
